A short description of this test: qHTS Assay for Lipid Storage Modulators in Drosophila S3 Cells.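 For cell number change: cells counted by Cell Tracker Red CMTPX staining in the red channel.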 As to conditions: BODIPY lipid droplet fluorescence, 18-24 h; for cell number change: measured here: cell count max response, cells fed with added oleic acid. The method, boiled down: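 Drosophila S3 cells loaded with oleic acid (400 uM, as added) and compounds at several concentrations; lipid droplets imaged by 488-nm laser-scanning cytometry, 500–530 nm intensity and object ratio to cell channel. Percent activity normalized to 20 uM Triacsin C.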

The mark [1] stands for this setting: measured here: lipid fluorescence (Fed channel) AC50, cells fed with added oleic acid.
Where [2] appears, read: measured here: cell number channel AC50, cells fed with added oleic acid.

This is one part of the list. These are further read-outs of the screen, such as a control signal, another cell line or another target. No call is given for them. The list favours compounds with an active or inconclusive main result. The note in brackets gives the kind of curve behind each potency; many fits are weak.

As a reminder, the AC50 is the concentration at which the activity in the assay is half-maximal. The low end stands for greater potency, the high end for weaker potency. In the case of `CCOc1cc(C2C(C(=O)OC)=C(C)N=C3SC(C)C(=O)N32)ccc1OC(C)=O` (stereo not drawn), the AC50 under setting [1] was 29.1 µM [rising, single point].

Consider `Cc1csc(NC(=O)CSc2nnc(-c3ccncc3)o2)n1`, for which the cell number change is 18.1%. For the same compound, the AC50 under setting [1] was 11.6 µM [rising, partial curve].

For `CN(c1ccc(C(=O)N2CCCCC2)cc1)S(C)(=O)=O`, the cell number change was -18.8%.

Consider `Cc1ccc(C)c(NC(=O)CN(C)C(=O)c2ccc(S(=O)(=O)N3CCCCCC3)cc2)c1`, for which the cell number change was -0.648%. The half-maximal activity concentration (AC50) under setting [1] was 0.00517 µM [falling, full curve, poor fit].

Regarding `Cc1ccc(C)c(OCCn2c(=O)c3c(ncn3C3CCCC3)n(Cc3ccccc3)c2=O)c1`, the cell number change worked out at 17.7%.

For the compound `N#CC1(NC(=O)COC(=O)Cc2n[nH]c(=O)c3ccccc23)CCCCC1`, the cell number change was 12.5%.

For `COc1cccc(C(=O)N2CCN(C(=O)COc3ccc4ccccc4c3)CC2)c1`, the cell number change was 17.9%. Moreover, the AC50 under setting [1] is 0.116 µM [falling, single point].

On to `O=C1CC2(CCCCC2)Oc2ccc(OCC(=O)N3CCOCC3)cc21`, for which the cell number change was -13.9%. For the same compound, under setting [1], the AC50 is 18.4 µM [falling, single point].

On to `COc1cccc(N2CCN(c3cnc4ccccc4n3)CC2)c1`, for which the cell number change amounted to 36.9%. Under setting [2], the AC50 was 0.082 µM [rising, full curve]. For the same compound, the AC50 under setting [1] was 0.366 µM [rising, partial curve, poor fit].

In the case of `CC1=C(C(=O)OC(C)(C)C)C(c2ccco2)C(C#N)=C(N)O1` (stereo not drawn), the cell number change was -86.1%. For the same compound, the half-maximal activity concentration (AC50) under setting [2] was 20.6 µM [falling, partial curve, poor fit]. Further, the concentration at half-maximal activity (AC50) under setting [1] was 1.84 µM [falling, partial curve].

As for `C=C(C)COc1ccc(-c2ncnc(C(F)(F)F)c2-c2ccccc2)c(O)c1`, the cell number change was 129%. Further, under setting [1], the AC50 is 29.1 µM [rising, single point].

As for `Cc1cccc(C(=O)NCC(=O)NNC(=O)c2ccccc2O)c1`, the cell number change is -6.39%. The AC50 under setting [1] is 0.731 µM [falling, full curve, poor fit].

For the compound `CCC(C)(C)c1ccc(OCCCC[n+]2cccc(C)c2)c(C(C)(C)CC)c1`, the cell number change is -79.3%. In addition, the AC50 under setting [2] was 13 µM [falling, partial curve].

For `Cc1ccc(N(CC(=O)O)S(C)(=O)=O)cc1Cl`, the cell number change was found to be 11.2%. Further, the concentration at half-maximal activity (AC50) under setting [1] was 0.0366 µM [rising, single point].

Consider `COc1ccc(S(=O)(=O)N2CCC(O)(c3ccc(Cl)cc3)CC2)cc1`, for which the cell number change was -8.79%. The half-maximal activity concentration (AC50) under setting [1] is 20.6 µM [rising, single point].

Turning to `COc1ccccc1-c1noc(-c2ccncc2)n1`, the cell number change is -0.291%. In addition, the half-maximal activity concentration (AC50) under setting [1] is 18.4 µM [rising, single point].

As to `COc1cc(C(=O)Nc2ccccc2N2CCCCC2)cc(OC)c1OC`, the cell number change is 11.1%. For the same compound, the AC50 under setting [1] was 3.26 µM [rising, partial curve].

As to `Cc1nc2ccc3nc(NC(=O)C4COc5ccccc5O4)sc3c2s1` (stereo not drawn), the cell number change was -48%. Moreover, the AC50 under setting [2] is 14.6 µM [falling, single point].

Consider `COc1cc(/C=N/NC(=O)c2cc(-c3cccn3C)n[nH]2)cc(OC)c1OC`, for which the cell number change was 6.9%. Further, the AC50 under setting [1] was 13 µM [rising, partial curve].

Regarding `CCC(=O)C1CCCN(C(=O)CCc2nnc(-c3ccc(C(C)=O)s3)o2)C1` (stereo not drawn), the cell number change was 9.17%. In addition, under setting [1], the AC50 is 32.6 µM [falling, single point].

In the case of `COC(=O)c1c(C)[nH]c(O)c1C=Nc1ccc(Oc2ccccc2)cc1`, the cell number change was 17.8%. Further, the concentration at half-maximal activity (AC50) under setting [1] is 6.51 µM [falling, single point].

As for `CCCOC(=O)COC(=O)c1ccccc1NC(=O)c1ccccc1`, the cell number change was -6.51%. For the same compound, the half-maximal activity concentration (AC50) under setting [1] is 2.59 µM [rising, full curve, poor fit].

As to `Cc1cc(NS(=O)(=O)c2ccc(NC(=O)C(C)Oc3ccc(C(C)C)cc3)cc2)no1` (stereo not drawn), the cell number change was 6.09%.

On to `O=S(=O)(Cc1ccc(Cl)cc1)NCC1CCCO1` (stereo not drawn), for which the cell number change turned out to be 0.334%. Also, the half-maximal activity concentration (AC50) under setting [1] was 23.1 µM [falling, partial curve].

With `CC1(C)OC(=O)N(c2cccnc2)C1(C)O` (stereo not drawn), the cell number change is -91.3%. Also, the AC50 under setting [2] was 32.6 µM [falling, single point].

For `CCOc1ccc(-n2nnnc2SCC(=O)Nc2ccc(NC(C)=O)cc2)cc1`, the cell number change is -18.3%. Under setting [1], the AC50 was 0.92 µM [falling, full curve, poor fit].

`Cc1ccc2cc(CCNC(=O)c3ccc4c(c3)OCO4)c(=O)[nH]c2c1`: the cell number change came to 57.6%. Besides, the AC50 under setting [2] is 5.17 µM [rising, partial curve, poor fit]. Moreover, the AC50 under setting [1] is 1.64 µM [rising, partial curve].

On to `Cc1csc(=O)n1CC(=O)OCC(=O)c1c(N)n(C)c(=O)n(C)c1=O`, for which the cell number change is -82.5%.

Regarding `Nc1ccc2c(c1)C(=O)N(CCCC(=O)O)C2=O`, the cell number change is -12.6%. Also, under setting [1], the AC50 is 20.6 µM [falling, single point].

`Clc1ccc(SCCCCn2cncn2)cc1`: the cell number change was determined as 16.4%.

As to `COC(=O)CNC(=O)CN1C(=O)N(c2ccccc2)C(N(O)C(=O)Nc2ccccc2)C1(C)C` (stereo not drawn), the cell number change came to 126%. Also, under setting [2], the AC50 was 29.1 µM [rising, partial curve, poor fit].

For the compound `CCOc1ccc(C(c2c(NC(=O)c3ccccc3)sc(C)c2C)N2CCN(C)CC2)cc1` (stereo not drawn), the cell number change was -53%. Under setting [2], the AC50 was 20.6 µM [falling, single point]. Under setting [1], the AC50 was 18.4 µM [falling, single point].

For `Cc1cc(C)n2nc(C(=O)OCC(=O)N(C)Cc3ccccc3)nc2n1`, the cell number change was determined as 0.803%.

Turning to `COc1ccc(CC(=O)NNC(=O)c2ccco2)cc1`, the cell number change came out at 15.8%.

On to `Cc1ccc(S(=O)(=O)N2C(=O)[C@@H]3Cc4ccccc4CN3C2=O)cc1`, for which the cell number change was 15.3%.

Regarding `Cc1cccc(NC(=O)CSc2nccn2Cc2ccco2)c1`, the cell number change worked out at 2.09%. Also, the AC50 under setting [1] is 0.58 µM [falling, single point].

For the compound `C=CCn1c(SCC(=O)Nc2ccc(OC)cc2)nc2ccccc2c1=O`, the cell number change was 109%. Moreover, under setting [2], the AC50 is 29.1 µM [rising, single point].

On to `COc1ccc2[nH]c3c(=O)n(N)c(=O)[nH]c3c2c1`, for which the cell number change was determined as 60.6%. Under setting [2], the AC50 is 0.0206 µM [rising, full curve].

`COc1ccc(CN(C)C(=O)CNC(=O)c2ccc(C)cc2)cc1`: the cell number change was -14.5%.

Turning to `CS(=O)(=O)c1ccc(Cl)c(NC(=O)c2cc(=O)[nH]c3ccc(S(=O)(=O)N4CCOCC4)cc23)c1`, the cell number change was -24%. Moreover, the AC50 under setting [1] is 8.2 µM [falling, partial curve, poor fit].

Take `O=C(NCCNC(=O)c1ccccn1)c1ccc(-c2ccccc2)cc1`: the cell number change was -32.1%. Further, the AC50 under setting [2] was 13 µM [falling, single point].

As to `Cc1c(C)c2ccc(OC(C)C(=O)N3CC[C@@]4(O)CCCC[C@H]4C3)cc2oc1=O` (stereo partly drawn), the cell number change worked out at 15%. In addition, under setting [2], the AC50 is 6.51 µM [rising, single point].

On to `O=C(CN1CCN(S(=O)(=O)c2ccc(F)cc2)CC1)Nc1cccc(C(F)(F)F)c1`, for which the cell number change is -3.74%. Under setting [2], the AC50 is 5.8 µM [rising, single point]. In addition, under setting [1], the AC50 was 16.4 µM [falling, single point].

Regarding `CN(C)S(=O)(=O)c1ccc2nnn(OCC(=O)NC3CCS(=O)(=O)C3)c2c1` (stereo not drawn), the cell number change amounted to 21.7%. Further, the AC50 under setting [1] is 0.116 µM [rising, full curve, poor fit].

Consider `Clc1ccc(/C=C/c2ncc[nH]2)c(Cl)c1`, for which the cell number change was determined as 19.6%. Besides, under setting [1], the AC50 was 13 µM [rising, single point].

Turning to `CCOc1cccc(Nc2cc3n(c(=O)n2)CCc2cc(OC)c(OC)cc2-3)c1`, the cell number change was -30.4%. Further, the AC50 under setting [2] was 14.6 µM [falling, partial curve, poor fit]. The AC50 under setting [1] is 23.1 µM [falling, single point].

As for `CN(C(=O)COC(=O)c1ccc2c(c1)OCO2)c1c(N)n(Cc2ccccc2)c(=O)[nH]c1=O`, the cell number change stood at 41.3%. For the same compound, the AC50 under setting [2] was 29.1 µM [rising, single point].

Consider `O=C1CC(Nc2ccc(N3CCOCC3)cc2)C(=O)N1c1ccccc1` (stereo not drawn), for which the cell number change came to 15.6%. Moreover, the concentration at half-maximal activity (AC50) under setting [1] was 16.4 µM [rising, partial curve, poor fit].

Turning to `c1ccc(Cn2c(Sc3nnnn3-c3ccccc3)nnc2-c2ccccc2)cc1`, the cell number change was found to be 182%. For the same compound, the AC50 under setting [2] is 9.2 µM [rising, partial curve]. In addition, the AC50 under setting [1] was 6.51 µM [rising, partial curve].

As for `Cc1nnc(NC(=O)CSc2nnc(Cc3cccn3C)n2-c2cccc(C)c2C)s1`, the cell number change turned out to be 6.98%. Further, the AC50 under setting [2] is 0.326 µM [rising, full curve, poor fit]. Besides, the AC50 under setting [1] was 0.291 µM [rising, partial curve, poor fit].

For `O=C(Nc1ccccc1Cl)C1CCCN(c2ncnc3c2nc2n3CCCCC2)C1` (stereo not drawn), the cell number change is -3.44%.

With `CC(C)=C1SC(N2CCN(c3cccc(C)c3)CC2)=NC1=O`, the cell number change is 33.1%. Also, the AC50 under setting [2] is 16.4 µM [rising, single point]. Moreover, the AC50 under setting [1] is 0.461 µM [falling, full curve, poor fit].

With `O=S(Cc1ccc(Br)cc1)Cc1nnc(SCc2ccc(Cl)cc2)n1-c1ccccc1` (stereo not drawn), the cell number change was -42.9%. In addition, the concentration at half-maximal activity (AC50) under setting [2] was 5.8 µM [falling, partial curve]. Under setting [1], the AC50 is 0.58 µM [falling, partial curve].

Consider `Cc1nc2cc(Cl)ccc2n1CCO`, for which the cell number change is -3.11%. Also, the AC50 under setting [1] was 4.11 µM [falling, single point].

With `CCOC(=O)c1c(C)nc2ccccn12`, the cell number change was -19.2%. For the same compound, under setting [1], the AC50 is 0.092 µM [falling, full curve].

On to `Cc1c(Cl)cccc1NC(=S)N(CCCN1CCOCC1)Cc1ccco1`, for which the AC50 by setting is: under setting [2], 0.092 µM [rising, full curve, poor fit]; under setting [1], 0.103 µM [rising, partial curve, poor fit].

As to `Cc1ccc(S(=O)(=O)N2CCN(C(=O)c3ccccc3Cc3ccccc3)CC2)c(C)c1`, the cell number change was -5.45%. Also, the AC50 under setting [1] was 2.91 µM [rising, single point].

`COc1ccc(NC(=O)CC2C(=O)N(c3ccc(OC)cc3)C(=O)N2Cc2ccc(OC)c(OC)c2)cc1` (stereo not drawn): the cell number change is -36.5%.

With `CC(=O)c1c(C)[nH]c(C(=O)OCC(=O)c2c[nH]c3ccccc23)c1C`, the cell number change was -50.6%. In addition, under setting [2], the AC50 was 29.1 µM [falling, single point].

`COc1ccc(S(=O)(=O)N(C)CC(=O)NC2CCCCC2)cc1Cl`: the cell number change was determined as 41.3%. Further, the AC50 under setting [2] was 29.1 µM [rising, single point]. Moreover, under setting [1], the AC50 was 6.51 µM [falling, single point].

Values taken from PubChem BioAssay AID2685 (National Center for Advancing Translational Sciences (NCATS), 2010).
